Results are given in words; binding and its absence hold for the method and conditions named. Binding seen in cells or lysates may run through a third protein. Some entries that bind do so weakly or less than the wild type.
Legend:
[1] = target: connexin43 (mouse (endogenous in MC3T3)) (UniProt P23242); assay: co-IP; endogenous proteins in MC3T3 whole cell lysates (500 ug; IP buffer 50 mM Tris pH 8.0, 150 mM NaCl, 1.0% Triton-X-100), 2 ug antibody overnight at 4°C, protein A/G-agarose, five washes in cold PBS; western blot of supernatant and bead fractions; cells untreated or treated with 5 ng/ml FGF2 (0, 10, 20 min)
[2] = target: protein kinase C-delta (mouse (endogenous in MC3T3)) (UniProt P28867); assay: as above
[3] = target: PKCε (mouse (endogenous in MC3T3)) (UniProt P16054); assay: as above
[4] = target: GST-Cx43CT(241-382) (mouse (primer names mCx43)) (UniProt P23242); assay: pull-down; purified GST or GST-Cx43CT(241-382) crosslinked to Glutathione Sepharose 4B beads (25 ul) incubated with 100 ug MC3T3 whole cell extract, 4 hours at 4°C; five washes in 50 mM HEPES pH 7.5, 1 mM EDTA, 150 mM NaCl, 10% glycerol, 0.1% Tween-20, 0.5 mM DTT; western blot with anti-PKCδ; only the target purified

The chains behind the UniProt entries cited, without tags or fusion partners. Where a name states a change or a piece, a line headed by the entry shows the natural chain unless it says otherwise. Residues count along the entry.
UniProt P23242: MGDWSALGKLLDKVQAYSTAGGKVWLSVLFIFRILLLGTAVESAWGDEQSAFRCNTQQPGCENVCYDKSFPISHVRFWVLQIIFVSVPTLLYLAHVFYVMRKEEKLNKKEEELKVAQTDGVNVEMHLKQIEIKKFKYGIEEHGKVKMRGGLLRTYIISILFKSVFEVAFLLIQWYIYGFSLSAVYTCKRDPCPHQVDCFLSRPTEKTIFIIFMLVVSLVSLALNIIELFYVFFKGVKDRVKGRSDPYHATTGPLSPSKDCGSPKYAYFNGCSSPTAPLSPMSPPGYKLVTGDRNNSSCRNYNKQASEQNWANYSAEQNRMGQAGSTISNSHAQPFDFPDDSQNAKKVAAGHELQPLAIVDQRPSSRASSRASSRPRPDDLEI
GST-Cx43CT(241-382) (mouse (primer names mCx43)): residues 241-382 of P23242
UniProt P28867: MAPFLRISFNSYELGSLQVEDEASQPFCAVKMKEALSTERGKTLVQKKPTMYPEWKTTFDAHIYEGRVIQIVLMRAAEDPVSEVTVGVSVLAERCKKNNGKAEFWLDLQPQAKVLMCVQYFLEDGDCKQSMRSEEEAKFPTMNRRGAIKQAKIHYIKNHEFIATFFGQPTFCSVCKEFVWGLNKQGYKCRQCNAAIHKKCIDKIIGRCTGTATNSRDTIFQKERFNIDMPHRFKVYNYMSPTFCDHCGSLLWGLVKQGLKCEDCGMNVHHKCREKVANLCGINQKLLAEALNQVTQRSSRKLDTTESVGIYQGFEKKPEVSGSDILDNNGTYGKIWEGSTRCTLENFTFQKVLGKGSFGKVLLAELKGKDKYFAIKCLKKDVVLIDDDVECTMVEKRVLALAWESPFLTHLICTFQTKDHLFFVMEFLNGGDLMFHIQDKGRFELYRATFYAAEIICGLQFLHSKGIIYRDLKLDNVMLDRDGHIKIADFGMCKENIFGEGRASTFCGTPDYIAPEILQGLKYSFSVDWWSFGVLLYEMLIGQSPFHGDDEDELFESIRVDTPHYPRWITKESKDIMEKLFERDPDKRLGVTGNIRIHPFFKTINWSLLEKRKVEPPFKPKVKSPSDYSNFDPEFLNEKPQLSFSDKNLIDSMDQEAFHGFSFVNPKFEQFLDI
UniProt P16054: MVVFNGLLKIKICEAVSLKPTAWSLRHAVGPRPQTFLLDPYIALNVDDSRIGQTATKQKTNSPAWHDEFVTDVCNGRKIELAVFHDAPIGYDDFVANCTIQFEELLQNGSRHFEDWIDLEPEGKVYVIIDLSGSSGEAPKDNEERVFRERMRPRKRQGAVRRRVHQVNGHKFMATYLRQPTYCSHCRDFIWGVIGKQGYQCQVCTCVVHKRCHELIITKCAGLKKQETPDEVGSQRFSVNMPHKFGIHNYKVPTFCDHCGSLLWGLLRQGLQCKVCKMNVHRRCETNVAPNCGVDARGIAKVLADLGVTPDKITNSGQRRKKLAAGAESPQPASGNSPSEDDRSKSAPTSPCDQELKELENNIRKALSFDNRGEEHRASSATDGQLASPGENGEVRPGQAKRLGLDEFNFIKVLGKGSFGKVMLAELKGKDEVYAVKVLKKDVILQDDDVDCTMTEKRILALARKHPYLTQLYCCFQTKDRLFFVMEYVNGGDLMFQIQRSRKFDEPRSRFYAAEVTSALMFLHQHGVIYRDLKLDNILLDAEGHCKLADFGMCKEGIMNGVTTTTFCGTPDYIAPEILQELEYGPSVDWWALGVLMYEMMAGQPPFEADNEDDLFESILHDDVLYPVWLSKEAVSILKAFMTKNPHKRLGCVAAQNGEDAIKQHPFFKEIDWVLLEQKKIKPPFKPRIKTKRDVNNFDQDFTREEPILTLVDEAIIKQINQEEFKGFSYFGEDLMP

In the case of “PKCε (from UniProt P16054 1-737) (enzyme)”, the binding [1] is reported as “binds”.
For connexin43 (from UniProt P23242 1-382), the binding [2] was “binds” and the binding [3] was “binds”.
In the case of “protein kinase C-delta (from UniProt P28867 1-674) (enzyme)”, the binding [1] is reported as “binds” and the binding [4] is reported as “binds”.

From article PMC2855512
